Results reported in the supplement of paper PMC4749390.
Structures can show the parent of a compound that is named as a salt. The list shows a part of the results. This data set is noisy: repeats of one test often differ as much as different tests do.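 JEG3 cells stably express tetracycline-inducible wild-type human LRH-1, a highly sumoylated nuclear receptor. SUMO-sensitive transcripts APOC3 and MUC1, increased by SUMO-deficient LRH-1 or UBC9 knockdown, were quantified by RT-qPCR relative to TBP and DMSO controls. Primary hits had robust Z-scores above +2 or below -2, before toxicity and TBP filtering.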

These compounds were tested on JEG3 expressing hLRH-1 (assay: MUC1 transcript change (ddCt vs TBP and DMSO), Z-score over library; higher = higher MUC1 expression). Conditions: 10 µM; time (hr): 24.

Row | SMILES | MUC1 transcript change (Z-score)
1 | COc1ccccc1O [guaiacol] | -0.199
2 | CN1CCc2cccc3c2C1Cc1ccc(O)c(O)c1-3 (stereo not given) [apomorphine hydrochloride] | 0.763
3 | Oc1ncc(F)c(O)n1 [fluorouracil] | 0.528
4 | CC(=O)CC(c1ccccc1)c1c(O)oc2ccccc2c1=O (stereo not given) [warfarin] | 0.686
5 | CC(C)COC(=O)c1ccc(N)cc1 [isobutamben] | -0.973
6 | C[C@@H]1CC2C3CCC4=CC(=O)C=C[C@]4(C)[C@@]3(F)[C@@H](O)C[C@]2(C)[C@H]1C(=O)CO (stereo not given in full) [desoxymetasone] | -0.2
7 | Cc1cc(/C=C/c2ccc3cc(N(C)C)ccc3[n+]2C)c(C)n1-c1ccccc1 [pyrvinium pamoate] | -6.6
8 | CC(=O)O[C@H]1C(=O)[C@@]2(C)C([C@H](OC(=O)c3ccccc3)[C@]3(O)C[C@H](OC(=O)[C@H](O)[C@@H](NC(=O)c4ccccc4)c4ccccc4)C(C)=C1C3(C)C)[C@]1(OC(C)=O)CO[C@@H]1C[C@@H]2O (stereo not given in full) [Taxol] | -0.263
9 | C=CCSCC1Nc2cc(Cl)c(S(N)(=O)=O)cc2S(=O)(=O)N1 (stereo not given) [althiazide] | 1.7
10 | CC(C)(C(=O)O)c1ccc(C(O)CCCN2CCC(C(O)(c3ccccc3)c3ccccc3)CC2)cc1 (stereo not given) [fexofenadine hydrochloride] | -0.115
11 | C/C=C(/C(=C/C)c1ccc(O)cc1)c1ccc(O)cc1 [dienestrol] | -0.152
12 | CC(=O)Nc1ccc(O)cc1 [acetaminophen] | -0.44
13 | O=C(Nc1ccccc1)OCC(CN1CCCCC1)OC(=O)Nc1ccccc1 (stereo not given) [diperodon hydrochloride] | 0.305
14 | NCCCC(N)C(=O)O (stereo not given) [ornithine aketoglutarate] | 0.466
15 | CC(=O)Oc1ccccc1C(=O)Nc1ncc([N+](=O)[O-])s1 [nitazoxanide] | 1.23
16 | CO/N=C(\C(=O)N[C@@H]1C(=O)N2C(C(=O)O)=C(C[N+]3(C)CCCC3)CS[C@H]12)c1csc(N)n1 [cefepime hydrochloride] | 0.443
17 | CC1(C)C(C(=O)O)N2C(=O)C[C@H]2S1(=O)=O (stereo not given in full) [sulbactam] | -3.35
18 | COc1cc2c(cc1OC)C(=O)C(CC1CCN(Cc3ccccc3)CC1)C2 (stereo not given) [donepizil hydrochloride] | 1.36
19 | CC(=O)N[C@@H](Cc1ccccc1)C(=O)O [afalanine] | -0.228
20 | O=C1[O][Bi]([OH])[O]c2ccccc21 [bismuth subsalicylate] | 1.26
21 | Cc1cc2c(cc1S(N)(=O)=O)S(=O)(=O)CCC2 [meticrane] | -0.104
22 | c1ccc([C@H]2CN3CCSC3=N2)cc1 [levamisole hydrochloride] | 0.755
23 | CCCCC(=O)O[C@]1(C(=O)CO)CC[C@H]2[C@@H]3CCC4=CC(=O)CC[C@]4(C)[C@H]3[C@@H](O)C[C@@]21C [hydrocortisone valerate] | -1.34
24 | Cc1noc(NS(=O)(=O)c2ccc(N)cc2)c1C [sulfisoxazole] | -0.234
25 | O=C(Nc1ccccc1)c1ccccc1O [salicylanilide] | 0.41

Sorted by heavy-atom count (ascending): some entries from above.
Row | SMILES | MUC1 transcript change (Z-score)
3 | Oc1ncc(F)c(O)n1 [fluorouracil] | 0.528
12 | CC(=O)Nc1ccc(O)cc1 [acetaminophen] | -0.44
21 | Cc1cc2c(cc1S(N)(=O)=O)S(=O)(=O)CCC2 [meticrane] | -0.104
15 | CC(=O)Oc1ccccc1C(=O)Nc1ncc([N+](=O)[O-])s1 [nitazoxanide] | 1.23

(list continues)

Row | SMILES | MUC1 transcript change (Z-score)
26 | COc1cc2nc(N(C)CCCNC(=O)C3CCCO3)nc(N)c2cc1OC (stereo not given) [alfuzosin hydrochloride] | 0.263
27 | CN1CCN2c3ccccc3Cc3ccccc3C2C1 (stereo not given) [Mianserin hydrochloride] | 0.549
28 | CN1CC(=O)N=C1N [creatinine] | 0.935
29 | CCC(C)C1NC(=O)C(CCN)NC(=O)C(NC(=O)C(CCN)NC(=O)C(NC(=O)C(CCN)NC(=O)CCCCC(C)C)C(C)O)CCNC(=O)C(C(C)O)NC(=O)C(CCN)NC(=O)C(CCN)NC(=O)C(C(C)CC)NC1=O (stereo not given) [colistin sulfate] | 0.327
30 | OC[C@H]1O[C@@H](O[C@@H]2[C@@H](CO)OC(O)(CO)[C@H]2O)[C@H](O)[C@@H](O)[C@H]1O (mixture of isomers) [lactulose] | -0.202
31 | Cc1scc2c1N(C(=O)CN1CCN(C)CC1)c1ccccc1NC2=O [Telenzepine dihydrochloride] | 1.07
32 | CN(C)CCC(c1ccc(Br)cc1)c1ccccn1 (stereo not given) [brompheniramine maleate] | -0.504
33 | Cc1ccc2c(Cl)cc(Cl)c(O)c2n1 [chlorquinaldol] | -0.175
34 | N=C(N)N/N=C/c1c(Cl)cccc1Cl [guanabenz acetate] | -0.226
35 | NC(Cc1ccc(O)cc1)C(=O)O (stereo not given) [tyrosine] | 0.329
36 | COC(=O)N/N=C/c1c[n+]([O-])c2ccccc2[n+]1[O-] [carbadox] | 0.733
37 | O=C(O)c1ccccc1OP(=O)(O)O [fosfosal] | 0.12
38 | CN(C)CCOC(=O)COc1ccc(Cl)cc1 [meclofenoxate hydrochloride] | 0.0743
39 | CC(N)C12CC3CC(CC(C3)C1)C2 (stereo not given) [rimantadine hydrochloride] | -0.833
40 | COC(=O)C(N)CS (stereo not given) [mecysteine hydrochloride] | 0.479
41 | O=C1c2ccccc2C(=O)C1c1ccccc1 [phenindione] | 0.539
42 | O=C(O)c1cc(-c2ccccc2)nc2ccccc12 [cinchophen] | 0.603
43 | COc1ccc2cc1Oc1ccc(cc1)C[C@H]1c3c(cc4c(c3Oc3cc5c(cc3OC)CCN(C)[C@@H]5C2)OCO4)CCN1C [cepharanthine] | 0.505
44 | CC(=O)N(O)CCCCCNC(=O)CCC(=O)N(O)CCCCCNC(=O)CCC(=O)N(O)CCCCCN [deferoxamine mesylate] | 2.81
45 | Cc1cc(-c2ccc(N=Nc3ccc4c(S(=O)(=O)O)cc(S(=O)(=O)O)c(N)c4c3O)c(C)c2)ccc1N=Nc1ccc2c(S(=O)(=O)O)cc(S(=O)(=O)O)c(N)c2c1O [evans blue] | 0.752
46 | O=C1CC2(CCCC2)CC(=O)N1CCCCN1CCN(c2ncccn2)CC1 [Buspirone hydrochloride] | 1.01
47 | CN1CCC(=C2c3ccccc3Sc3ccccc32)CC1 [pimethixene maleate] | -0.649
48 | O=C(CCCN1CCN(c2ccccn2)CC1)c1ccc(F)cc1 [azaperone] | 0.981
49 | CCC(Cc1c(I)cc(I)c(N)c1I)C(=O)O (stereo not given) [iopanic acid] | 0.105
50 | CCC(NC(C)C)C(O)c1ccc(O)c(O)c1 (stereo not given) [isoetharine mesylate] | -0.305
